Assay results from publication doi:10.1101/138099 (bioRxiv, 2017).
No constants are given. Whether binding was seen depends on the method and setting. For part of these data: In cells and extracts the contact can be indirect. One block for each binder: values may come before it.

How the values were obtained:
[1] = biological target: BslA_(C178A,C180A) produced in the B. subtilis bslA deletion strain (NRS5179) (Bacillus subtilis) (UniProt P71014); assay: Western blot of a biofilm extract made with reducing agent
[2] = biological target: BslA_(C178A,C180A) produced in the B. subtilis bslA deletion strain (NRS5179) (Bacillus subtilis) (UniProt P71014); assay: cross-linking
[3] = biological target: BslA_(C180A) produced in the B. subtilis bslA deletion strain (NRS5178) (Bacillus subtilis) (UniProt P71014); assay: Western blot of a biofilm extract made with reducing agent
[4] = biological target: BslA_(C178A) produced in the B. subtilis bslA deletion strain (NRS5177) (Bacillus subtilis) (UniProt P71014); assay: as above
[5] = biological target: BslA, wild type, from the B. subtilis NCIB3610 biofilm (Bacillus subtilis (endogenous in NCIB3610)) (UniProt P71014); assay: as above
[6] = biological target: BslA_(Δ172-181) produced in the B. subtilis bslA deletion strain (NRS2957) (Bacillus subtilis) (UniProt P71014); assay: as above
[7] = biological target: BslA_(Δ172-181) produced in the B. subtilis bslA deletion strain (NRS2957) (Bacillus subtilis) (UniProt P71014); assay: cross-linking
[8] = biological target: BslA_(C178A,C180A), recombinant BslA_(42-181) variant (Bacillus subtilis) (UniProt P71014); assay: SEC + other: non-reducing SDS-PAGE
[9] = biological target: BslA_(Δ172-181), recombinant BslA_(42-181) with the C-terminal 10 amino acids removed (Bacillus subtilis) (UniProt P71014); assay: SEC + other: non-reducing SDS-PAGE

binding [1]: no binding (tested: 10 mM DTT)
binding [2]: no binding
B1: BslA_(C178A,C180A) produced in the B. subtilis bslA deletion strain (NRS5179) (protein, UniProt P71014 29-181)
chain: AESTSTKAHTESTMRTQSTASLFATITGASKTEWSFSDIELTYRPNTLLSLGVMEFTLPSGFTANTKDTLNGNALRTTQILNNGKTVRVPLALDLLGAGEFKLKLNNKTLPAAGTYTFRAENKSLSIGNKFYAEASIDVAKRSTPPTQPAGAN

binding [3]: no binding (condition: with 10 mM DTT)
B2: BslA_(C180A) produced in the B. subtilis bslA deletion strain (NRS5178) (natural protein, Bacillus subtilis, UniProt P71014 29-181, looked up)
chain: AESTSTKAHTESTMRTQSTASLFATITGASKTEWSFSDIELTYRPNTLLSLGVMEFTLPSGFTANTKDTLNGNALRTTQILNNGKTVRVPLALDLLGAGEFKLKLNNKTLPAAGTYTFRAENKSLSIGNKFYAEASIDVAKRSTPPTQPCGAN

binding [4]: no binding (condition: with 10 mM DTT)
B3: BslA_(C178A) produced in the B. subtilis bslA deletion strain (NRS5177) (natural protein, Bacillus subtilis, UniProt P71014 29-181, looked up)
chain: AESTSTKAHTESTMRTQSTASLFATITGASKTEWSFSDIELTYRPNTLLSLGVMEFTLPSGFTANTKDTLNGNALRTTQILNNGKTVRVPLALDLLGAGEFKLKLNNKTLPAAGTYTFRAENKSLSIGNKFYAEASIDVAKRSTPPTQPAGCN

binding [5]: no binding (condition: with 10 mM DTT)
B4: BslA, wild type, from the B. subtilis NCIB3610 biofilm (natural protein, UniProt P71014 29-181, looked up)
chain: AESTSTKAHTESTMRTQSTASLFATITGASKTEWSFSDIELTYRPNTLLSLGVMEFTLPSGFTANTKDTLNGNALRTTQILNNGKTVRVPLALDLLGAGEFKLKLNNKTLPAAGTYTFRAENKSLSIGNKFYAEASIDVAKRSTPPTQPCGCN

binding [6]: no binding (tested: 10 mM DTT)
binding [7]: no binding
B5: BslA_(Δ172-181) produced in the B. subtilis bslA deletion strain (NRS2957) (domain or fragment, UniProt P71014 29-171)
chain: AESTSTKAHTESTMRTQSTASLFATITGASKTEWSFSDIELTYRPNTLLSLGVMEFTLPSGFTANTKDTLNGNALRTTQILNNGKTVRVPLALDLLGAGEFKLKLNNKTLPAAGTYTFRAENKSLSIGNKFYAEASIDVAKRS

binding [8]: no binding
B6: BslA_(C178A,C180A), recombinant BslA_(42-181) variant (domain or fragment, UniProt P71014 42-181)
chain: MRTQSTASLFATITGASKTEWSFSDIELTYRPNTLLSLGVMEFTLPSGFTANTKDTLNGNALRTTQILNNGKTVRVPLALDLLGAGEFKLKLNNKTLPAAGTYTFRAENKSLSIGNKFYAEASIDVAKRSTPPTQPAGAN

binding [9]: no binding
B7: BslA_(Δ172-181), recombinant BslA_(42-181) with the C-terminal 10 amino acids removed (domain or fragment, UniProt P71014 42-171)
chain: MRTQSTASLFATITGASKTEWSFSDIELTYRPNTLLSLGVMEFTLPSGFTANTKDTLNGNALRTTQILNNGKTVRVPLALDLLGAGEFKLKLNNKTLPAAGTYTFRAENKSLSIGNKFYAEASIDVAKRS
